Six molecules from PMC11044178 can be followed below.

Protein sequences, listed by entry. Tags and fused reporters are not part of them. Residues count along the entry.
UniProt Q07011, residues 24-255: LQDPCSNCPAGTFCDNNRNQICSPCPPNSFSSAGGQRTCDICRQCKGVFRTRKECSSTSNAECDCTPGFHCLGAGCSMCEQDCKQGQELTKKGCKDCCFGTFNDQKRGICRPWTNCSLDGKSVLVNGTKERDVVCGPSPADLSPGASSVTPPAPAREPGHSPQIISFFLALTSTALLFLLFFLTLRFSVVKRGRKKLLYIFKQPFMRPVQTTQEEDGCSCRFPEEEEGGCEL

These are yes or no findings as the source states them, for the method shown. Binding seen in cells or lysates may run through a third protein. Here binding means that the protein was enriched with, or labelled near, the bait; the list need not be complete. A no says only that the protein was not detected with the bait.

The chains are these.
B1: TAB2 (protein, UniProt Q9NYJ8 1-693)
chain: MAQGSHQIDFQVLHDLRQKFPEVPEVVVSRCMLQNNNNLDACCAVLSQESTRYLYGEGDLNFSDDSGISGLRNHMTSLNLDLQSQNIYHHGREGSRMNGSRTLTHSISDGQLQGGQSNSELFQQEPQTAPAQVPQGFNVFGMSSSSGASNSAPHLGFHLGSKGTSSLSQQTPRFNPIMVTLAPNIQTGRNTPTSLHIHGVPPPVLNSPQGNSIYIRPYITTPGGTTRQTQQHSGWVSQFNPMNPQQVYQPSQPGPWTTCPASNPLSHTSSQQPNQQGHQTSHVYMPISSPTTSQPPTIHSSGSSQSSAHSQYNIQNISTGPRKNQIEIKLEPPQRNNSSKLRSSGPRTSSTSSSVNSQTLNRNQPTVYIAASPPNTDELMSRSQPKVYISANAATGDEQVMRNQPTLFISTNSGASAASRNMSGQVSMGPAFIHHHPPKSRAIGNNSATSPRVVVTQPNTKYTFKITVSPNKPPAVSPGVVSPTFELTNLLNHPDHYVETENIQHLTDPTLAHVDRISETRKLSMGSDDAAYTQALLVHQKARMERLQRELEIQKKKLDKLKSEVNEMENNLTRRRLKRSNSISQIPSLEEMQQLRSCNRQLQIDIDCLTKEIDLFQARGPHFNPSAIHNFYDNIGFVGPVPPKPKDQRSIIKTPKTQDTEDDEGAQWNCTACTFLNHPALIRCEQCEMPRHF
B2: transforming growth factor β–activated kinase (TAK) (protein, UniProt O43318 1-606)
chain: MSTASAASSSSSSSAGEMIEAPSQVLNFEEIDYKEIEVEEVVGRGAFGVVCKAKWRAKDVAIKQIESESERKAFIVELRQLSRVNHPNIVKLYGACLNPVCLVMEYAEGGSLYNVLHGAEPLPYYTAAHAMSWCLQCSQGVAYLHSMQPKALIHRDLKPPNLLLVAGGTVLKICDFGTACDIQTHMTNNKGSAAWMAPEVFEGSNYSEKCDVFSWGIILWEVITRRKPFDEIGGPAFRIMWAVHNGTRPPLIKNLPKPIESLMTRCWSKDPSQRPSMEEIVKIMTHLMRYFPGADEPLQYPCQYSDEGQSNSATSTGSFMDIASTNTSNKSDTNMEQVPATNDTIKRLESKLLKNQAKQQSESGRLSLGASRGSSVESLPPTSEGKRMSADMSEIEARIAATTAYSKPKRGHRKTASFGNILDVPEIVISGNGQPRRRSIQDLTVTGTEPGQVSSRSSSPSVRMITTSGPTSEKPTRSHPWTPDDSTDTNGSDNSIPMAYLTLDHQLQPLAPCPNSKESMAVFEQHCKMAQEYMKVQTEIALLLQRKQELVAELDQDEKDQQNTSRLVQEHKKLLDENKSLSTYYQQCKKQLEVIRSQQQKRQGTS
B3: TAB3 (protein, UniProt Q8N5C8 1-712)
chain: MAQSSPQLDIQVLHDLRQRFPEIPEGVVSQCMLQNNNNLEACCRALSQESSKYLYMEYHSPDDNRMNRNRLLHINLGIHSPSSYHPGDGAQLNGGRTLVHSSSDGHIDPQHAAGKQLICLVQEPHSAPAVVAATPNYNPFFMNEQNRSAATPPSQPPQQPSSMQTGMNPSAMQGPSPPPPPPSYMHIPRYSTNPITVTVSQNLPSGQTVPRALQILPQIPSNLYGSPGSIYIRQTSQSSSGRQTPQSTPWQSSPQGPVPHYSQRPLPVYPHQQNYQPSQYSPKQQQIPQSAYHSPPPSQCPSPFSSPQHQVQPSQLGHIFMPPSPSTTPPHPYQQGPPSYQKQGSHSVAYLPYTASSLSKGSMKKIEITVEPSQRPGTAINRSPSPISNQPSPRNQHSLYTATTPPSSSPSRGISSQPKPPFSVNPVYITYTQPTGPSCTPSPSPRVIPNPTTVFKITVGRATTENLLNLVDQEERSAAPEPIQPISVIPGSGGEKGSHKYQRSSSSGSDDYAYTQALLLHQRARMERLAKQLKLEKEELERLKSEVNGMEHDLMQRRLRRVSCTTAIPTPEEMTRLRSMNRQLQINVDCTLKEVDLLQSRGNFDPKAMNNFYDNIEPGPVVPPKPSKKDSSDPCTIERKARRISVTSKVQADIHDTQAAAADEHRTGSTQSPRTQPRDEDYEGAPWNCDSCTFLNHPALNRCEQCEMPRYT
B4: TAB1 (protein, UniProt Q15750 1-504)
chain: MAAQRRSLLQSEQQPSWTDDLPLCHLSGVGSASNRSYSADGKGTESHPPEDSWLKFRSENNCFLYGVFNGYDGNRVTNFVAQRLSAELLLGQLNAEHAEADVRRVLLQAFDVVERSFLESIDDALAEKASLQSQLPEGVPQHQLPPQYQKILERLKTLEREISGGAMAVVAVLLNNKLYVANVGTNRALLCKSTVDGLQVTQLNVDHTTENEDELFRLSQLGLDAGKIKQVGIICGQESTRRIGDYKVKYGYTDIDLLSAAKSKPIIAEPEIHGAQPLDGVTGFLVLMSEGLYKALEAAHGPGQANQEIAAMIDTEFAKQTSLDAVAQAVVDRVKRIHSDTFASGGERARFCPRHEDMTLLVRNFGYPLGEMSQPTPSPAPAAGGRVYPVSVPYSSAQSTSKTSVTLSLVMPSQGQMVNGAHSASTLDEATPTLTNQSPTLTLQSTNTHTQSSSSSSDGGLFRSRPAHSLPPGEDGRVEPYVDFAEFYRLWSVDHGEQSVVTAP
B5: IKKβ (protein, UniProt O14920 1-756)
chain: MSWSPSLTTQTCGAWEMKERLGTGGFGNVIRWHNQETGEQIAIKQCRQELSPRNRERWCLEIQIMRRLTHPNVVAARDVPEGMQNLAPNDLPLLAMEYCQGGDLRKYLNQFENCCGLREGAILTLLSDIASALRYLHENRIIHRDLKPENIVLQQGEQRLIHKIIDLGYAKELDQGSLCTSFVGTLQYLAPELLEQQKYTVTVDYWSFGTLAFECITGFRPFLPNWQPVQWHSKVRQKSEVDIVVSEDLNGTVKFSSSLPYPNNLNSVLAERLEKWLQLMLMWHPRQRGTDPTYGPNGCFKALDDILNLKLVHILNMVTGTIHTYPVTEDESLQSLKARIQQDTGIPEEDQELLQEAGLALIPDKPATQCISDGKLNEGHTLDMDLVFLFDNSKITYETQISPRPQPESVSCILQEPKRNLAFFQLRKVWGQVWHSIQTLKEDCNRLQQGQRAAMMNLLRNNSCLSKMKNSMASMSQQLKAKLDFFKTSIQIDLEKYSEQTEFGITSDKLLLAWREMEQAVELCGRENEVKLLVERMMALQTDIVDLQRSPMGRKQGGTLDDLEEQARELYRRLREKPRDQRTEGDSQEMVRLLLQAIQSFEKKVRVIYTQLSKTVVCKQKALELLPKVEEVVSLMNEDEKTVVRLQEKRQKELWNLLKIACSKVRGPVSGSPDSMNASRLSQPGQLMSQPSTASNSLPEPAKKSEELVAEAHNLCTLLENAIQDTVREQDQSFTALDWSWLQTEEEEHSCLEQAS
B6: TRAF1 (protein, UniProt Q13077 1-416)
chain: MASSSGSSPRPAPDENEFPFGCPPTVCQDPKEPRALCCAGCLSENPRNGEDQICPKCRGEDLQSISPGSRLRTQEKAHPEVAEAGIGCPFAGVGCSFKGSPQSVQEHEVTSQTSHLNLLLGFMKQWKARLGCGLESGPMALEQNLSDLQLQAAVEVAGDLEVDCYRAPCSESQEELALQHFMKEKLLAELEGKLRVFENIVAVLNKEVEASHLALATSIHQSQLDRERILSLEQRVVELQQTLAQKDQALGKLEQSLRLMEEASFDGTFLWKITNVTRRCHESACGRTVSLFSPAFYTAKYGYKLCLRLYLNGDGTGKRTHLSLFIVIMRGEYDALLPWPFRNKVTFMLLDQNNREHAIDAFRPDLSSASFQRPQSETNVASGCPLFFPLSKLQSPKHAYVKDDTMFLKCIVETST

For one assay, the target named is CD137 (4-1BB), stably transfected in Jurkat cells (UniProt Q07011). In words: affinity purification with mass spectrometry; CD137 stably transfected Jurkat cells, MG132, stimulated on CD137L-Fc-coated plates 15 min; 1% Brij96 lysates; IP with anti-CD137 6B4 on magnetic microbeads against control IgG; LC-MS/MS.
As to B1, the binding result is “no binding”.

Consider B2, for which the binding entry is given as “no binding”.

For the molecule B3, the binding entry was “no binding”.

Regarding B4, the binding entry is on record as “no binding”.

The target in another assay is CD137 (4-1BB, TNFRSF9) (human (endogenous in primary CD8 T cells)) (UniProt Q07011). As to the kind of experiment: affinity purification with mass spectrometry; preactivated primary human CD8 T cells, MG132, resting or 15 min at 37°C on plates coated with CD137L, anti-CD3 or both (part left on ice); 1% Brij96 lysates; IP with anti-CD137 6B4 on magnetic microbeads against control IgG; tryptic digest, LC-MS/MS.
As for B5, the binding entry is “binds”.

B1: the binding entry is recorded as “no binding”.

On to B2, for which the binding entry is “no binding”.

As for B6, the binding result is reported as “binds”.

On to B3, for which the binding entry is “no binding”.

For B4, the binding entry is “no binding”.
